# From patent EP0025842B1 (FUJISAWA PHARMACEUTICAL CO., LTD., priority 1979, dated 1987)
# Test: general procedure: solution-phase peptide synthesis; isobutyl chlorocarbonate / N-methyl morpholine (mixed anhydride)
# Settings: late stage modification step
substance,measurement,value
D-Lac-L-Ala-y-D-Glu(α-OH)-(L)-Z-(D)-mesoDAP-(L)-GlyOH,step yield,94.7%
